Measured values taken from patent US10278958B2, “IPA as a protective agent” (IXCELA, INC., priority 2012, dated 2019).

Test: Depression study of Sertraline: plasma IPA
Format: in vivo, human
Conditions: Study 15, 4 weeks, n=57

Structure (SMILES): CN[C@H]1CC[C@@H](c2ccc(Cl)c(Cl)c2)c2ccccc21 [Sertraline]
- mean plasma IPA on treatment: 186.3 ng/mL
